Measured data: PubChem BioAssay AID504774 (Drosophila RNAi Screening Center, 2011)
The deposit covers about 23,000 reagents; shown is a random part of those that have a named target and a result. 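Values are quantile-normalised luminescence on an arbitrary scale; higher means more cells surviving MMS.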 A plus sign joins genes that one reagent is predicted to hit.

Test: 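Genes required for cells to withstand methyl methanesulphonate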 (primary screen)
Cell system: Drosophila Kc167 cells
Reagent: long dsRNA against Drosophila genes, about 0.25 µg dsRNA per well
Duration: about 6 days: 3 days knock-down, then 3 days with or without MMS
Challenge: methyl methanesulphonate 0.004% (w/v) for 3 days after knock-down
Measured: 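ATP-dependent luminescence as a measure of live cells in MMS-exposed wells, quantile normalised within each plate, with replicate values also given as a mean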
Reading the numbers: mean viability with MMS and viability with MMS: higher = more surviving cells after MMS

no.	gene knocked down	dsRNA	mean viability with MMS	viability with MMS, replicate 1	viability with MMS, replicate 2
1	Bicra	DRSC14417	3.40e6	3.77e6	3.86e6
2	Prat2	DRSC09692	3.64e6	4.14e6	4.11e6
3	gro	DRSC16962	3.51e6	3.90e6	4.06e6
4	CG32986	DRSC02509	3.60e6	3.93e6	4.25e6
5	CG7054	DRSC16185	3.55e6	4.02e6	4.04e6
6	CG12817	DRSC14555	3.66e6	4.09e6	4.12e6
7	Eaat2	DRSC00032	3.83e6	4.37e6	4.22e6
8	Eaat2	DRSC00749	3.73e6	4.30e6	4.19e6
9	Bug22	DRSC02842	3.56e6	3.96e6	4.14e6
10	CG42755 (retired record)	DRSC09105	3.68e6	4.21e6	4.06e6
11	CG42755 (retired record)	DRSC09106	3.67e6	4.19e6	4.06e6
12	CG14177 (retired record)	DRSC10176	3.75e6	4.16e6	4.07e6
13	CG5565	DRSC00690	3.46e6	3.89e6	3.94e6
14	scf	DRSC08735	3.66e6	4.19e6	4.05e6
15	Git	DRSC06620	3.39e6	3.82e6	3.81e6
16	CG1421	DRSC03707	3.65e6	4.22e6	4.06e6
17	CG34051	DRSC01739	3.63e6	4.07e6	4.14e6
18	Teh1	DRSC14544	3.61e6	4.13e6	4.01e6
19	CG11123	DRSC06040	3.50e6	4.02e6	3.94e6
20	Alp10	DRSC09749	3.43e6	3.90e6	3.88e6
21	CrebA	DRSC11122	3.56e6	3.95e6	4.13e6
22	gfzf	DRSC12506	3.16e6	3.66e6	3.60e6
23	gfzf	DRSC21874	2.96e6	3.78e6	3.77e6
24	Or63a	DRSC08681	3.55e6	4.02e6	4.03e6
25	CG30472	DRSC22245	3.44e6	3.90e6	3.96e6
26	Gbp1	DRSC06592	3.54e6	4.08e6	3.95e6
27	CG6362	DRSC07413	3.52e6	3.85e6	4.14e6
28	CG32069 + Blos2	DRSC10621	3.75e6	4.17e6	4.34e6
29	CG3198	DRSC18292	3.46e6	4.01e6	3.83e6
30	asp	DRSC16903	3.60e6	4.05e6	4.10e6
31	Ir67a	DRSC09897	3.69e6	4.22e6	4.08e6
32	Ntan1	DRSC07546	3.61e6	4.17e6	4.00e6
33	CG9877	DRSC04587	3.59e6	4.39e6	3.76e6
34	twr	DRSC12491	3.61e6	4.06e6	4.12e6
35	Rheb	DRSC12148	3.41e6	3.80e6	3.89e6
36	CG14759	DRSC06494	3.72e6	4.10e6	4.19e6
37	kl-5 (retired record)	DRSC20707	3.61e6	4.14e6	4.00e6
38	kl-5 (retired record)	DRSC20736	2.42e6	4.10e6	4.01e6
39	kl-5 (retired record)	DRSC20773	2.35e6	3.89e6	4.02e6
40	kl-5 (retired record)	DRSC21161	3.39e6	3.88e6	3.83e6
41	CG42493	DRSC05309	3.54e6	3.96e6	4.07e6
42	CG17050 (retired record)	DRSC06651	3.54e6	4.20e6	3.92e6
43	Nop56	DRSC14699	3.29e6	3.88e6	3.62e6
44	tna	DRSC09053	3.51e6	3.94e6	4.03e6
45	tna	DRSC10937	3.34e6	3.68e6	3.82e6
46	tna	DRSC23236	3.65e6	4.09e6	4.19e6
